According to article PMC7819943, “Rice protein-binding microarrays: a tool to detect cis-acting elements near promoter regions in rice”:
This is one part of the list.

What follows are sequences tested against T1, OsSMF1 (Oryza sativa, UniProt Q6ZLB0 1-436) (assay: protein-binding microarray (RPBM); PBS, 2% BSA, 51.3 ng/ul salmon testes DNA, 50 uM zinc acetate, 200 nM TF, 25 C, 1 h; high values mean tight binding). Conditions: protein: recombinant; tags: N-terminal polyhistidine and DsRed monomer fusion (pET32a); chain copies: 2; label: CyDye5-dUTP incorporated in the synthesized complementary strand; 3' TTTTT single-stranded linker to array surface; dsDNA, one strand shown.
T1 sequence: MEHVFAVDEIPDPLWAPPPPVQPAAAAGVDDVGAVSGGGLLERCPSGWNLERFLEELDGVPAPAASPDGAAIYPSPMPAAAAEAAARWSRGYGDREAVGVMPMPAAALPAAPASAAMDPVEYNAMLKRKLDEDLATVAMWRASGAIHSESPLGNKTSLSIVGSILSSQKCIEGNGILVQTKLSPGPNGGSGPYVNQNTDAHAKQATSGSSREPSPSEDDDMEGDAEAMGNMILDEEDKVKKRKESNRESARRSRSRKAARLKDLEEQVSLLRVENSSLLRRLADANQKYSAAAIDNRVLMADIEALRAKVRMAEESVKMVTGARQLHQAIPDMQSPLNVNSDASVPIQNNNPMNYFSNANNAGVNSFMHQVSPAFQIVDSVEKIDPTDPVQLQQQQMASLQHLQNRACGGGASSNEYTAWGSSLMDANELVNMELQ
Method in brief: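 Per-feature fluorescence intensity (arbitrary units), read on an Axon 4000B scanner, is the binding signal. Transcription factors carrying an N-terminal polyhistidine tag and DsRed fusion were expressed in E. coli BL21-CodonPlus and purified on Ni–NTA. A custom Agilent array, made double-stranded by primer extension with Cy5-dUTP and blocked with 2% BSA, was incubated with 200 nM protein in PBS, 2% BSA, salmon testes DNA and 50 µM zinc acetate at 25 °C for 1 h and then washed.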

Question: Which binding signal does the source give for “ACTCCTTGCATAGCTTGAGTCTTCATTTCCAGGTCATGGGCGGAGTCACCTAGTGCAG” here?
Answer: The binding signal was 3610 fluorescence intensity (a.u.).

Question: Which binding signal does the source give for “AACACCAACACACCCTCGGGCCACGACTTCGACTACAACGCGGAGTCACCTAGTGCAG” here?
Answer: The binding signal was 3290 fluorescence intensity (a.u.).

Question: Which binding signal does the source give for “ATGGGGTGGATGCGTCAGAATTTACATAGGCACGGAACGTCGGAGTCACCTAGTGCAG” here?
Answer: The binding signal was 5800 fluorescence intensity (a.u.).

Question: For “TAATTACTCCATTGGCTTGTCAGCCGACCGGCTCATCATACGGAGTCACCTAGTGCAG”, which binding signal is on record?
Answer: The binding signal was 3460 fluorescence intensity (a.u.).

Question: Which binding signal does the source give for “GGATCTCTCCTCACTCCTCCGCCACCTCAAAGCTCTCCGTCGGAGTCACCTAGTGCAG” here?
Answer: Its binding signal is 3340 fluorescence intensity (a.u.).

Question: With “CACTGACTCACACCCCGTCACTCCCCTCTTCTCCTCACCTCGGAGTCACCTAGTGCAG” as the sequence, how does the binding signal read?
Answer: The binding signal was 7020 fluorescence intensity (a.u.).

Question: “TGCCGGTGTGGCTTGCTGAGTACTGTGGTTGTACTCATTCCGGAGTCACCTAGTGCAG” was tested. Which binding signal did it give?
Answer: Its binding signal is 3270 fluorescence intensity (a.u.).

Question: “ATATATCATACCTTGGTACATTTGTCAGCCTCACGGCAGTCGGAGTCACCTAGTGCAG” was tested. Which binding signal did it give?
Answer: Its binding signal is 3210 fluorescence intensity (a.u.).

Question: “GGTGGTGGTGGTGGAGAGAGAGAGGAGTGCGTCGCCGACGCGGAGTCACCTAGTGCAG” was tested. Which binding signal did it give?
Answer: Its binding signal is 3460 fluorescence intensity (a.u.).

Question: For “GAGAGATCGTACACGAGTCATTTCAACTCGGACAATTTGCCGGAGTCACCTAGTGCAG”, which binding signal is on record?
Answer: The binding signal was 3180 fluorescence intensity (a.u.).

Question: Which binding signal does the source give for “ATTAGTATTGGCATAGAATAAACAATTGTCATATCACTTCCGGAGTCACCTAGTGCAG” here?
Answer: Its binding signal is 3250 fluorescence intensity (a.u.).

Question: Which binding signal does the source give for “TGCAGTTGGAGGTTTTCCAAGCTCGGGCGACATCATCCTGCGGAGTCACCTAGTGCAG” here?
Answer: Its binding signal is 3520 fluorescence intensity (a.u.).

Question: “TGTGGCTTAATTAGTTCAAGTAGCAGCTCCTCCTGCAGTCCGGAGTCACCTAGTGCAG” was tested. Which binding signal did it give?
Answer: Its binding signal is 4810 fluorescence intensity (a.u.).

Question: “GCGAGTTAGGAGGGCGGCGGCGGGGCCTTCTCCTGTGGTGCGGAGTCACCTAGTGCAG” was tested. Which binding signal did it give?
Answer: The binding signal was 3190 fluorescence intensity (a.u.).

Question: “CGAAGCAGGTCAACACATTCCACACGTGTCAAGGAATGTACGGAGTCACCTAGTGCAG” was tested. Which binding signal did it give?
Answer: Its binding signal is 4590 fluorescence intensity (a.u.).

Question: With “AGGCGAGCGAGACGGCGGCGGGCGGGCGGGGCGGGCGACGCGGAGTCACCTAGTGCAG” as the sequence, how does the binding signal read?
Answer: The binding signal was 3470 fluorescence intensity (a.u.).

Question: For “TCGCTTACAATCTCAGTAGTGTCAGTAGTGTGATAGAGCACGGAGTCACCTAGTGCAG”, which binding signal is on record?
Answer: Its binding signal is 5320 fluorescence intensity (a.u.).

Question: Which binding signal does the source give for “TGGGGTTGGTAAACGACGTTGACGTGGCACCCCTGCCCCACGGAGTCACCTAGTGCAG” here?
Answer: The binding signal was 14000 fluorescence intensity (a.u.).

Question: Which binding signal does the source give for “TGGGCTATGGTGCCTTCGGTCCAGCACGGCACGGCCCGAGCGGAGTCACCTAGTGCAG” here?
Answer: The binding signal was 3190 fluorescence intensity (a.u.).

Question: With “GTTTGACACTTTTAGTACGTGTTTGACCATTTGTTTTATTCGGAGTCACCTAGTGCAG” as the sequence, how does the binding signal read?
Answer: The binding signal was 4180 fluorescence intensity (a.u.).

Question: How did the binding signal turn out when “CCCCAATCCTCGCATGCCAACTCACCTGTGTTGCTTTTGCCGGAGTCACCTAGTGCAG” was run?
Answer: The binding signal was 7550 fluorescence intensity (a.u.).

Question: “TTTAACCACATCAGTACAACCCAAAACTTCTTTGAAAGTACGGAGTCACCTAGTGCAG” was tested. Which binding signal did it give?
Answer: Its binding signal is 3210 fluorescence intensity (a.u.).

Question: “AAAATTACAGTGTAATTACATCATAACTTACGTGTAATTACGGAGTCACCTAGTGCAG” was tested. Which binding signal did it give?
Answer: The binding signal was 6090 fluorescence intensity (a.u.).

Question: “CCGGCATGCTGGTCAGCATCGGAAAACTTCCCCTTCAAGACGGAGTCACCTAGTGCAG” was tested. Which binding signal did it give?
Answer: The binding signal was 3510 fluorescence intensity (a.u.).

Question: How did the binding signal turn out when “CACCAGGTGCTCGGCGGCGCACACGTGGACGCGGGTGGCCCGGAGTCACCTAGTGCAG” was run?
Answer: The binding signal was 12200 fluorescence intensity (a.u.).

Question: How did the binding signal turn out when “CTAGCCGCACGATCAGCCACGTGGCGGAGATCTAACGGCCCGGAGTCACCTAGTGCAG” was run?
Answer: The binding signal was 27100 fluorescence intensity (a.u.).

Question: For “CCTCCTTGCTCACAGTCACAGATGGGAAGAGAGGAATTGACGGAGTCACCTAGTGCAG”, which binding signal is on record?
Answer: The binding signal was 4900 fluorescence intensity (a.u.).

Question: With “GTATCCATTCCTGCAAATCCAAGTTGGCAATTCCGAGGGCCGGAGTCACCTAGTGCAG” as the sequence, how does the binding signal read?
Answer: The binding signal was 3340 fluorescence intensity (a.u.).

Question: Which binding signal does the source give for “ACGTTGTTTACTCACCTTTTCCGTACGTGTCAAAGCTACTCGGAGTCACCTAGTGCAG” here?
Answer: The binding signal was 7170 fluorescence intensity (a.u.).

Question: With “TTGGCCACCTCCACCTCACTCGCATGAAGGCTAAGTGAGCCGGAGTCACCTAGTGCAG” as the sequence, how does the binding signal read?
Answer: The binding signal was 4160 fluorescence intensity (a.u.).

Question: How did the binding signal turn out when “GCCTCTCCTCAAGCGGTGGAGAGCGCGGACGTGGACGTGCCGGAGTCACCTAGTGCAG” was run?
Answer: The binding signal was 6520 fluorescence intensity (a.u.).

Question: How did the binding signal turn out when “ACAAGAGCCAGCGCGGCGTGTGTGCGCGATTTCTCTCTTCCGGAGTCACCTAGTGCAG” was run?
Answer: Its binding signal is 3210 fluorescence intensity (a.u.).

Question: “GTCAGCAGCCTCCAGTGGCGTCATCCAATGGAGAAGCCCCCGGAGTCACCTAGTGCAG” was tested. Which binding signal did it give?
Answer: The binding signal was 4450 fluorescence intensity (a.u.).

Question: “CTAGCAGTGGCGGTGGCTCGCGGAGACGGTGGCTGGTGGTCGGAGTCACCTAGTGCAG” was tested. Which binding signal did it give?
Answer: Its binding signal is 28800 fluorescence intensity (a.u.).

Question: “CTTCCAAGCCCTCCACCTCCTCGTCCCCTGGTACGGGTGTCGGAGTCACCTAGTGCAG” was tested. Which binding signal did it give?
Answer: Its binding signal is 3220 fluorescence intensity (a.u.).

Question: Which binding signal does the source give for “AGGAAACACGGGAAAGAAAGAGGTGATGACGTGGATAGTCCGGAGTCACCTAGTGCAG” here?
Answer: The binding signal was 23300 fluorescence intensity (a.u.).

Question: How did the binding signal turn out when “CACCACCCTAAATGGAATAAGAAAATTCTTATTTGTGAATCGGAGTCACCTAGTGCAG” was run?
Answer: Its binding signal is 3440 fluorescence intensity (a.u.).

Question: How did the binding signal turn out when “AATATGTATCAAGGGACCATGACATATCTAACCTCGATCTCGGAGTCACCTAGTGCAG” was run?
Answer: Its binding signal is 3700 fluorescence intensity (a.u.).

Question: For “GCGGGCCTCGCGGCCACATCCATCAAACCACGGGAAAGATCGGAGTCACCTAGTGCAG”, which binding signal is on record?
Answer: The binding signal was 3460 fluorescence intensity (a.u.).

Question: With “ACTGTTTAGTAGATGTTTGGTGTTGAGCTGGATGTGGAGACGGAGTCACCTAGTGCAG” as the sequence, how does the binding signal read?
Answer: The binding signal was 3810 fluorescence intensity (a.u.).

Question: How did the binding signal turn out when “CGGTGGGTGAGCACGGCTGCGGAGAGGCGGCGTCAGCAGGCGGAGTCACCTAGTGCAG” was run?
Answer: Its binding signal is 4840 fluorescence intensity (a.u.).

Question: With “CCAAAATTACCATCTCATGACTCATTCCTTCAATCATCATCGGAGTCACCTAGTGCAG” as the sequence, how does the binding signal read?
Answer: The binding signal was 9710 fluorescence intensity (a.u.).
